The list shows a part of the results. These are further read-outs of the screen, such as a control signal, another cell line or another target. No call is given for them. Compounds called inactive in the main read-out are mostly missing here. The note in brackets gives the kind of curve behind each potency; many fits are weak.
Test: qHTS Assay for Modulators of Lamin A Splicing
Settings: HeLa LMNA splicing GFP/RFP minigene ratio, 48 h
How it was run: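 S3 HeLa cells stably expressing lamin A-EGFP splicing minigene plus DsRed2, 600 cells/well, 48 h compound exposure at 37C. Laser-scanning cytometry; analysed as GFP (500-530 nm)/RFP (575-640 nm) total intensity ratio; 0.5% DMSO vehicle.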

[1] = measured here: RFP viability control channel
[2] = measured here: GFP splicing reporter channel

| SMILES | AC50 [1] | AC50 [2] |
| --- | --- | --- |
| CCCCN(C(=O)CSc1nnc(-c2ccc(OC)cc2)n1CC)c1c(N)n(Cc2ccccc2)c(=O)[nH]c1=O | 0.0794 µM [rising, partial curve, poor fit] | – |
| CC(=O)c1cccc(NC(=O)c2ccc(-c3ccccc3[N+](=O)[O-])o2)c1 | 22.4 µM [rising, single point] | 6.31 µM [rising, single point] |
| Cn1cc(SCC(=O)Nc2nc3ccccc3s2)c2ccccc21 | – | 35.5 µM [falling, single point] |
| Cc1ccc(Cl)cc1NC(=O)Cn1cc(S(=O)(=O)Cc2ccccc2Cl)c2ccccc21 | 35.5 µM [falling, partial curve, poor fit] | – |
| O=C(COC(=O)C1(c2ccc(F)cc2)CCCC1)N1CCOCC1 | 6.31 µM [falling, partial curve] | – |
| O=C(/C(=C/O)N=Nc1ccccc1Cl)c1ccccc1 | 12.6 µM [falling, partial curve] | 20 µM [falling, partial curve] |
| Fc1cccc(CSc2nc(NCCc3ccccc3)c3ccccc3n2)c1 | 14.1 µM [falling, single point] | 11.2 µM [falling, single point] |
| Nc1nonc1C(=O)NCCNCc1cc(Br)ccc1OCc1ccccc1F | 25.1 µM [rising, partial curve] | – |
| CCC(=O)Nc1nc2c(OC)ccc(C)c2s1 | 11.2 µM [rising, partial curve, poor fit] | – |
| CC1(C)OC2CC(=O)OC[C@@]23C1CC(=O)[C@]1(C)C3CC[C@@]2(C)C(c3ccoc3)OC(=O)C3O[C@@]321 (stereo partly specified) | – | 0.00355 µM [falling, full curve, poor fit] |
| CCOC(=O)N1CCN(C(=O)c2ccc3c(=O)n(Cc4ccc(Cl)cc4)c(=S)[nH]c3c2)CC1 | 22.4 µM [rising, single point] | 14.1 µM [rising, single point] |
| CCn1c(COc2ccccc2C)nnc1SCC(=O)N1CCN(c2ccccc2)CC1 | 12.6 µM [rising, partial curve] | 10 µM [rising, partial curve] |
| COCCn1c(SCCCC(=O)c2ccc(Br)cc2)nnc1-c1ccncc1 | 7.94 µM [rising, partial curve] | – |
| CCn1cc(C(=O)O)c(=O)c2cc(F)c(N3CCN(S(=O)(=O)c4ccc(NC(=O)OC)cc4)CC3)cc21 | 11.2 µM [rising, partial curve] | – |
| CCC(C)NC(=S)N(CCc1ccccc1)Cc1cc2cc(OC)c(OC)cc2[nH]c1=O (stereo unspecified) | 11.2 µM [rising, partial curve] | 12.6 µM [rising, single point] |
| O=C(NCc1ccco1)/C(=C\c1ccco1)NC(=O)c1cccs1 | 17.8 µM [rising, partial curve, poor fit] | – |
| COc1ccc(NC(=O)CN2CCc3ccccc3C2)cc1S(=O)(=O)N1CCOCC1 | 25.1 µM [rising, single point] | 35.5 µM [rising, single point] |
| Cc1cc(N2CCN(c3ccccc3)CC2)nc(-c2ccccc2)n1 | 17.8 µM [rising, single point] | 11.2 µM [rising, single point] |

| SMILES | AC50 [1] | AC50 [2] |
| --- | --- | --- |
| CCc1ccc(-c2ccc3nnc(SCC(=O)Nc4cccc(C(C)=O)c4)n3n2)cc1 | 6.31 µM [falling, partial curve, poor fit] | – |
| COc1ccc(CCNC(=O)CN2C(=O)COc3ccccc32)cc1OC | 8.91 µM [falling, partial curve] | – |
| COC(=O)c1cc(C(=O)NCCCN2CCOCC2)cc([N+](=O)[O-])c1 | 5.62 µM [rising, single point] | – |
| Cc1ccccc1-c1nn2c(=O)cc(CN3CCN(C(=O)c4ccccc4Br)CC3)nc2s1 | 0.891 µM [falling, full curve, poor fit] | – |
| COc1ccc(/C=N/NC(=O)c2ccc(CSc3nc(C)cc(C)n3)cc2)c(OC)c1OC | 10 µM [rising, partial curve] | – |
| Cc1cccc2c1N(CCCOc1ccc(C(C)(C)C)cc1)C(=O)C2=O | – | 15.8 µM [falling, single point] |
| N=C(N)SCc1ccccn1 | 1.41 µM [falling, partial curve, poor fit] | 2 µM [falling, partial curve, poor fit] |
| Nc1nc(SCC(=O)O)[nH]c(=O)c1NC(=O)c1ccccc1F | 0.01 µM [rising, full curve, poor fit] | 0.0158 µM [rising, full curve, poor fit] |
| CCCn1c(SCC(=O)N2CCCCC2)nnc1C(C)C | 0.0251 µM [falling, partial curve, poor fit] | – |
| O=C(Oc1ccnc2cc(Cl)ccc12)N1CCCCCC1 | 0.282 µM [rising, full curve, poor fit] | – |
| CS(=O)(=O)N(CC(=O)NCCSC1CCCCC1)c1ccccc1 | 0.398 µM [rising, full curve, poor fit] | – |
| Cc1ccc(Nc2ncnc3c2nc2n3CCCC2)c(Br)c1 | – | 22.4 µM [falling, single point] |
| COc1ccc2nc(N(Cc3cccnc3)C(=O)COc3ccccc3)sc2c1 | 0.141 µM [falling, full curve, poor fit] | – |
| CCN(CC)S(=O)(=O)c1ccc(NS(=O)(=O)c2ccc(F)cc2)cc1 | – | 0.01 µM [rising, full curve, poor fit] |
| O=S(=O)(c1ccc(-c2cnc(C3CC3)o2)cc1)N1CCN(c2cccc(Cl)c2)CC1 | 0.00562 µM [falling, full curve, poor fit] | – |
| C=CCn1c(-c2cccnc2Cl)nc2cc(Cl)c(Cl)cc21 | 11.2 µM [rising, partial curve, poor fit] | 3.98 µM [rising, partial curve, poor fit] |
| O=C(CCc1c[nH]c2ccccc12)N1CCN(c2ccc(F)cc2)CC1 | 3.98 µM [rising, partial curve, poor fit] | – |

For reference, some entries already given:

| SMILES | AC50 [1] | AC50 [2] |
| --- | --- | --- |
| COc1ccc(/C=N/NC(=O)c2ccc(CSc3nc(C)cc(C)n3)cc2)c(OC)c1OC | 10 µM [rising, partial curve] | – |
| Cc1cccc2c1N(CCCOc1ccc(C(C)(C)C)cc1)C(=O)C2=O | – | 15.8 µM [falling, single point] |
| N=C(N)SCc1ccccn1 | 1.41 µM [falling, partial curve, poor fit] | 2 µM [falling, partial curve, poor fit] |
| Nc1nc(SCC(=O)O)[nH]c(=O)c1NC(=O)c1ccccc1F | 0.01 µM [rising, full curve, poor fit] | 0.0158 µM [rising, full curve, poor fit] |
| CCCn1c(SCC(=O)N2CCCCC2)nnc1C(C)C | 0.0251 µM [falling, partial curve, poor fit] | – |
| O=C(Oc1ccnc2cc(Cl)ccc12)N1CCCCCC1 | 0.282 µM [rising, full curve, poor fit] | – |
| CS(=O)(=O)N(CC(=O)NCCSC1CCCCC1)c1ccccc1 | 0.398 µM [rising, full curve, poor fit] | – |

— PubChem BioAssay AID1487 (National Center for Advancing Translational Sciences (NCATS), 2009)
